No constants are given. Whether binding was seen depends on the method and setting. Some results given as binding are weak or reduced against the parent protein; the word gives no strength.
T1: CD95 (human), P25445
T1 chain: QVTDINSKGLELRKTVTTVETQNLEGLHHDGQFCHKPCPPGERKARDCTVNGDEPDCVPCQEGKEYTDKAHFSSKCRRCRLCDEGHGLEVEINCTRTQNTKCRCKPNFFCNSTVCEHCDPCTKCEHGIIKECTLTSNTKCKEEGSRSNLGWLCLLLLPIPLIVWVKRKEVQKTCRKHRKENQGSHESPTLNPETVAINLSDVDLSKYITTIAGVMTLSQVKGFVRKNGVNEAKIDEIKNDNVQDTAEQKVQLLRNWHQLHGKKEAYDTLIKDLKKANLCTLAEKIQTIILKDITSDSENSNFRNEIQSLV

B1: caspase-10 (enzyme, human, UniProt Q92851 1-521, looked up)
chain: MKSQGQHWYSSSDKNCKVSFREKLLIIDSNLGVQDVENLKFLCIGLVPNKKLEKSSSASDVFEHLLAEDLLSEEDPFFLAELLYIIRQKKLLQHLNCTKEEVERLLPTRQRVSLFRNLLYELSEGIDSENLKDMIFLLKDSLPKTEMTSLSFLAFLEKQGKIDEDNLTCLEDLCKTVVPKLLRNIEKYKREKAIQIVTPPVDKEAESYQGEEELVSQTDVKTFLEALPQESWQNKHAGSNGNRATNGAPSLVSRGMQGASANTLNSETSTKRAAVYRMNRNHRGLCVIVNNHSFTSLKDRQGTHKDAEILSHVFQWLGFTVHIHNNVTKVEMEMVLQKQKCNPAHADGDCFVFCILTHGRFGAVYSSDEALIPIREIMSHFTALQCPRLAEKPKLFFIQACQGEEIQPSVSIEADALNPEQAPTSLQDSIPAEADFLLGLATVPGYVSFRHVEEGSWYIQSLCNHLKKLVPRMLKFLEKTMEIRGRKRTVWGAKQISATSLPTAISAQTPRPPMRRWSSVS
B2: FADD, Q13158 1-208 (protein, human, UniProt Q13158 1-208, looked up)
chain: MDPFLVLLHSVSSSLSSSELTELKFLCLGRVGKRKLERVQSGLDLFSMLLEQNDLEPGHTELLRELLASLRRHDLLRRVDDFEAGAAAGAAPGEEDLCAAFNVICDNVGKDWRRLARQLKVSDTKIDSIEDRYPRNLTERVRESLRIWKNTEKENATVAHLVGALRSCQMNLVADLVQEVQQARDLQNRSGAMSPMSWNSDASTSEAS

Columns and labels:
CD95 (human) = CD95 (human) (UniProt P25445); experiment: CD95L-Fc ligand affinity precipitation of the DISC from MET1 and A5-RT3 cells, Western blot
CD95 (human), P25445 = biological target: T1, CD95 (human), P25445; experiment: as above; conditions: remark: other sources report otherwise

Row | Binder | binding (CD95 (human)) | binding (CD95 (human), P25445)
1 | B1 | binds | –
2 | B2 | – | binds

— patent US20120015352A1, “METHOD OF DETERMINING SENSITIVITY OF HUMAN OR NON-HUMAN ANIMAL CELLS TO AN IAP ANTAGONIST” (Otto-von-Guericke-Universitat Magdeburg, priority 2009, published 2012)
